Our source for the binding signal (log2 enrichment (interaction score)) values is PMC8384837.

Settings in all cases: yeast three-hybrid, YBZ-1, SC-Leu-His + 0.5 mM 3-AT, 4 days
Assay [1] addresses T1, PUM1 PUF domain R4-ACC N971A + H972C + Q975C (Homo sapiens) (UniProt Q14671).
T1 sequence: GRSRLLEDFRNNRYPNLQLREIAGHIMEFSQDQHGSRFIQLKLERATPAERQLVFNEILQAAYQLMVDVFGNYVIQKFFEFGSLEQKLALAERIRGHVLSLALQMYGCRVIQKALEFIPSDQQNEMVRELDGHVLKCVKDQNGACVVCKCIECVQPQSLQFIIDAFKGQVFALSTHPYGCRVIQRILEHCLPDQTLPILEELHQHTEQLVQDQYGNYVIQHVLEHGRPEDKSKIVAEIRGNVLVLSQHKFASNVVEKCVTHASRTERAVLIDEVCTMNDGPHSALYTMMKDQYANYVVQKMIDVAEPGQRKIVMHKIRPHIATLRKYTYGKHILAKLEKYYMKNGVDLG

Assay [2] deals with T2, PUM1 PUF domain R4-DHL N971D + Q975L (Homo sapiens) (UniProt Q14671).
T2 sequence: T1 sequence with A144D, C145H, C148L

Assay [3] deals with T3, PUM1 PUF domain R4-FNA N971F + H972N + Q975A (Homo sapiens) (UniProt Q14671).
T3 sequence: T1 sequence with A144F, C145N, C148A

The target in assay [4] is T4, PUM1 PUF domain R4-GQS N971G + H972Q + Q975S (Homo sapiens) (UniProt Q14671).
T4 sequence: T1 sequence with A144G, C145Q, C148S

Assay [5] has as its target T5, PUM1 PUF domain R4-GRN N971G + H972R + Q975N (Homo sapiens) (UniProt Q14671).
T5 sequence: T1 sequence with A144G, C145R, C148N

The target in assay [6] is T6, PUM1 PUF domain R4-GRS N971G + H972R + Q975S (Homo sapiens) (UniProt Q14671).
T6 sequence: T1 sequence with A144G, C145R, C148S

For assay [7], the target named is T7, PUM1 PUF domain R4-MPT N971M + H972P + Q975T (Homo sapiens) (UniProt Q14671).
T7 sequence: T1 sequence with A144M, C145P, C148T

For assay [8], the target named is T8, PUM1 PUF domain R4-QRG N971Q + H972R + Q975G (Homo sapiens) (UniProt Q14671).
T8 sequence: T1 sequence with A144Q, C145R, C148G

Assay [9] deals with T9, PUM1 PUF domain R4-RFP N971R + H972F + Q975P (Homo sapiens) (UniProt Q14671).
T9 sequence: T1 sequence with A144R, C145F, C148P

The target of assay [10] is T10, PUM1 PUF domain R4-RGY N971R + H972G + Q975Y (Homo sapiens) (UniProt Q14671).
T10 sequence: T1 sequence with A144R, C145G, C148Y

Assay [11] has as its target T11, PUM1 PUF domain R4-RMI N971R + H972M + Q975I (Homo sapiens) (UniProt Q14671).
T11 sequence: T1 sequence with A144R, C145M, C148I

Assay [12] has as its target T12, PUM1 PUF domain R4-RMT N971R + H972M + Q975T (Homo sapiens) (UniProt Q14671).
T12 sequence: T1 sequence with A144R, C145M, C148T

The target in assay [13] is T13, PUM1 PUF domain R4-SMS N971S + H972M + Q975S (Homo sapiens) (UniProt Q14671).
T13 sequence: T1 sequence with A144S, C145M, C148S

The target of assay [14] is T14, PUM1 PUF domain R4-SPC N971S + H972P + Q975C (Homo sapiens) (UniProt Q14671).
T14 sequence: T1 sequence with A144S, C145P

For assay [15], the target named is T15, PUM1 PUF domain R4-SPQ N971S + H972P (Homo sapiens) (UniProt Q14671).
T15 sequence: T1 sequence with A144S, C145P, C148Q

For assay [16], the target named is T16, PUM1 PUF domain R4-SPV N971S + H972P + Q975V (Homo sapiens) (UniProt Q14671).
T16 sequence: T1 sequence with A144S, C145P, C148V

Assay [17] concerns the target T17, PUM1 PUF domain R4-SRC N971S + H972R + Q975C (Homo sapiens) (UniProt Q14671).
T17 sequence: T1 sequence with A144S, C145R

Assay [18] has as its target T18, PUM1 PUF domain R4-SRI N971S + H972R + Q975I (Homo sapiens) (UniProt Q14671).
T18 sequence: T1 sequence with A144S, C145R, C148I

In assay [19] the target is T19, PUM1 PUF domain R4-SRL N971S + H972R + Q975L (Homo sapiens) (UniProt Q14671).
T19 sequence: T1 sequence with A144S, C145R, C148L

Assay [20] concerns the target T20, PUM1 PUF domain R4-SRW N971S + H972R + Q975W (Homo sapiens) (UniProt Q14671).
T20 sequence: T1 sequence with A144S, C145R, C148W

Substitutions are numbered along the chain they refer to. The list shows a part of the results.

Take “GGCUAGAACUAGUGGAUCCCCCGGCGCCCGGCGGCUCGAGCCCGGGUAAGUGUACAUAGUCUGCAUGCCGCCGGGCGCCAUGCCUGCAGGUCGACUCUAGAAAACAUG”: the binding signal (log2 enrichment (interaction score)) in assay [1] was -0.05; in assay [2], -0.06; in assay [3], 0.19; in [4], -1.84; in assay [5] it was -0.69; in assay [6], 0.44. The binding signal (log2 enrichment (interaction score)) in [7] is 0.34; in assay [8], -0.31; in assay [9], 0.36; in assay [10], 0.16; in assay [11], 0.42; in assay [12], -0.02. The binding signal (log2 enrichment (interaction score)) is -0.32 in assay [13]; 0.77 in assay [14]; 0.4 in assay [15]; -0.22 in assay [16]; -0.59 in [17]; -0.07 in assay [18]. For the same sequence, the binding signal (log2 enrichment (interaction score)) in assay [19] was -0.07; in [20] it was -0.06.
